Assay results as given in the supplement of paper PMC10849652.
This is one part of the list.

Protein sequences, listed by entry. Tags and fused reporters are not part of them. Lines headed by an entry give the natural chain unless they say otherwise; changes in a name come on top.
UniProt Q9BRQ8: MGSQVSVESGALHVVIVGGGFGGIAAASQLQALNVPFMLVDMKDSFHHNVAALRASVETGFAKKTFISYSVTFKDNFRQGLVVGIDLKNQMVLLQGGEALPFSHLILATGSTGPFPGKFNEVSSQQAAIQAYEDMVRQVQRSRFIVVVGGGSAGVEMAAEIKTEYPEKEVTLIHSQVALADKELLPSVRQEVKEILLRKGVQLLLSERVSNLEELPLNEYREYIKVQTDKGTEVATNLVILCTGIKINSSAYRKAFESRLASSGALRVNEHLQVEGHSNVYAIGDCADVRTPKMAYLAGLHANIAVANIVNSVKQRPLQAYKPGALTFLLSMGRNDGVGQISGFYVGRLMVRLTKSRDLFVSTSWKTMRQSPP
UniProt Q01433: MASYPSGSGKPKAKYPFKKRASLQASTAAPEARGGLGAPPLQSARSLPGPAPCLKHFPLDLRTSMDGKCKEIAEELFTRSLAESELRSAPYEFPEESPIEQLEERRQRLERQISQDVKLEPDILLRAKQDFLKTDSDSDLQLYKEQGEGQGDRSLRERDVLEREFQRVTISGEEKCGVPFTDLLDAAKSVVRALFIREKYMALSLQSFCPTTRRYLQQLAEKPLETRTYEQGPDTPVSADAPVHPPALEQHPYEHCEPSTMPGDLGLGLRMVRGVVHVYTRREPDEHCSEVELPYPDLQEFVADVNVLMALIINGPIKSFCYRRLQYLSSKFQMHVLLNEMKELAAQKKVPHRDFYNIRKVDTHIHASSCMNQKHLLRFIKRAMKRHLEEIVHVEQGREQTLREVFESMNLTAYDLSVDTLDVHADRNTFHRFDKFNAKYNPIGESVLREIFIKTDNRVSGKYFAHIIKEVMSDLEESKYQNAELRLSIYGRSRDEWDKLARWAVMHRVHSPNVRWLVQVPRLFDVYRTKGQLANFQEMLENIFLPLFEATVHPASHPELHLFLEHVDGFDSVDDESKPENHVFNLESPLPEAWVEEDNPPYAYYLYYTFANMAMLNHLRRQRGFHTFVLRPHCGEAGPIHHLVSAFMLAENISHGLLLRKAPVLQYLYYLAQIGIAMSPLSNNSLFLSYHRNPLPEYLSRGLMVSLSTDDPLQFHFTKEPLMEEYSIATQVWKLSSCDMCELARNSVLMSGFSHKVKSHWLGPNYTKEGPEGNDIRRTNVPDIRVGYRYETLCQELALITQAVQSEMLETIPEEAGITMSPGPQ
UniProt P49189: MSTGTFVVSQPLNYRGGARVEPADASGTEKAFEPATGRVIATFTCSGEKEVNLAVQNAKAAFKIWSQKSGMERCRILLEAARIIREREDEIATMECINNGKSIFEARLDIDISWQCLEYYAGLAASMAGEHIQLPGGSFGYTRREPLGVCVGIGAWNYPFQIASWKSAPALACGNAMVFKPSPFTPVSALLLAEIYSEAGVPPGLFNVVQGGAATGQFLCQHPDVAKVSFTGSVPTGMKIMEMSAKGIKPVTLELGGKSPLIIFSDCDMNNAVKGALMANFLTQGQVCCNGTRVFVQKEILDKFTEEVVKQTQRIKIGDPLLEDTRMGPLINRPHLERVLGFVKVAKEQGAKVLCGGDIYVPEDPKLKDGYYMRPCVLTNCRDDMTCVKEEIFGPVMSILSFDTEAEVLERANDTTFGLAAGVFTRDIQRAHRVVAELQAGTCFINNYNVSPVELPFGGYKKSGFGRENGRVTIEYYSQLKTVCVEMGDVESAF
UniProt P35573: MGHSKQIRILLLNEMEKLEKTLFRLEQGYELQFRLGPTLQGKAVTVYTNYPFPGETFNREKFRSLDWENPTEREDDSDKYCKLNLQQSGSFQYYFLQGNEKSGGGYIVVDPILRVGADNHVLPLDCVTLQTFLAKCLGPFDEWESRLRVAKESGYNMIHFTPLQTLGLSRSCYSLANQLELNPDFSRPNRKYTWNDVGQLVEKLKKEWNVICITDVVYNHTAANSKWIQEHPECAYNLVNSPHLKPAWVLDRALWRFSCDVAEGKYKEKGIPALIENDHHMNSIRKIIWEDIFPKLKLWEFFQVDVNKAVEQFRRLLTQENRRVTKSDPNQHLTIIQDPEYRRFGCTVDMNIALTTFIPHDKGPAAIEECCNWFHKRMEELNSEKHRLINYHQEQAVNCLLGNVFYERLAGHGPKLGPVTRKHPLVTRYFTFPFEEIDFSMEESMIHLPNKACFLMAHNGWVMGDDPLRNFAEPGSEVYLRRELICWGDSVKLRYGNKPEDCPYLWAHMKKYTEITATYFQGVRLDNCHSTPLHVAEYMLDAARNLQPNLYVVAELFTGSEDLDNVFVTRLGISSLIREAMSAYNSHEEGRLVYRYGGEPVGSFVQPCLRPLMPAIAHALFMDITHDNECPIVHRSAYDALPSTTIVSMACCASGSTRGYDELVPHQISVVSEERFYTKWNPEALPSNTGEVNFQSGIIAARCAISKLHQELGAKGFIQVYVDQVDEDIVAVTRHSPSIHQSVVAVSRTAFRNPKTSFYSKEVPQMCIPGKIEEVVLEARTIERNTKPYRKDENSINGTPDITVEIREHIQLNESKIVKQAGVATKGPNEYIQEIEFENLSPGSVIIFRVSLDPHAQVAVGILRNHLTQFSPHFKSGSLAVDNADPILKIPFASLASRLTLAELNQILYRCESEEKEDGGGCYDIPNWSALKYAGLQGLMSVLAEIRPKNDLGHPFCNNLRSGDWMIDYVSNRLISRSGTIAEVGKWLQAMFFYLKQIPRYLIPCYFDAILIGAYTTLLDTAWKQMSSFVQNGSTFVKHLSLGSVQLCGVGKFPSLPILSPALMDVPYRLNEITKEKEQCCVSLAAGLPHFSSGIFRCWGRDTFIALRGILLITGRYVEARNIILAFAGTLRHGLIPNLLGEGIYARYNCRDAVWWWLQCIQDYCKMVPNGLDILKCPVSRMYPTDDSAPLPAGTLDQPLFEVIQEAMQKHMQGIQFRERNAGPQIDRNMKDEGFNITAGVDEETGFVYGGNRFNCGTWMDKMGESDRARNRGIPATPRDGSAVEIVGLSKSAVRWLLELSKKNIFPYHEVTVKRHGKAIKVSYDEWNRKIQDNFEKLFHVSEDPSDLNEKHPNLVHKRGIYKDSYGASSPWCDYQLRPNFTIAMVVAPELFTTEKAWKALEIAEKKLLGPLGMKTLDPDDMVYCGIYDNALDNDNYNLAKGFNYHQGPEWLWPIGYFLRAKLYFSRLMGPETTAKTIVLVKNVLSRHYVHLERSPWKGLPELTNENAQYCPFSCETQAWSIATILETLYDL
UniProt P55196: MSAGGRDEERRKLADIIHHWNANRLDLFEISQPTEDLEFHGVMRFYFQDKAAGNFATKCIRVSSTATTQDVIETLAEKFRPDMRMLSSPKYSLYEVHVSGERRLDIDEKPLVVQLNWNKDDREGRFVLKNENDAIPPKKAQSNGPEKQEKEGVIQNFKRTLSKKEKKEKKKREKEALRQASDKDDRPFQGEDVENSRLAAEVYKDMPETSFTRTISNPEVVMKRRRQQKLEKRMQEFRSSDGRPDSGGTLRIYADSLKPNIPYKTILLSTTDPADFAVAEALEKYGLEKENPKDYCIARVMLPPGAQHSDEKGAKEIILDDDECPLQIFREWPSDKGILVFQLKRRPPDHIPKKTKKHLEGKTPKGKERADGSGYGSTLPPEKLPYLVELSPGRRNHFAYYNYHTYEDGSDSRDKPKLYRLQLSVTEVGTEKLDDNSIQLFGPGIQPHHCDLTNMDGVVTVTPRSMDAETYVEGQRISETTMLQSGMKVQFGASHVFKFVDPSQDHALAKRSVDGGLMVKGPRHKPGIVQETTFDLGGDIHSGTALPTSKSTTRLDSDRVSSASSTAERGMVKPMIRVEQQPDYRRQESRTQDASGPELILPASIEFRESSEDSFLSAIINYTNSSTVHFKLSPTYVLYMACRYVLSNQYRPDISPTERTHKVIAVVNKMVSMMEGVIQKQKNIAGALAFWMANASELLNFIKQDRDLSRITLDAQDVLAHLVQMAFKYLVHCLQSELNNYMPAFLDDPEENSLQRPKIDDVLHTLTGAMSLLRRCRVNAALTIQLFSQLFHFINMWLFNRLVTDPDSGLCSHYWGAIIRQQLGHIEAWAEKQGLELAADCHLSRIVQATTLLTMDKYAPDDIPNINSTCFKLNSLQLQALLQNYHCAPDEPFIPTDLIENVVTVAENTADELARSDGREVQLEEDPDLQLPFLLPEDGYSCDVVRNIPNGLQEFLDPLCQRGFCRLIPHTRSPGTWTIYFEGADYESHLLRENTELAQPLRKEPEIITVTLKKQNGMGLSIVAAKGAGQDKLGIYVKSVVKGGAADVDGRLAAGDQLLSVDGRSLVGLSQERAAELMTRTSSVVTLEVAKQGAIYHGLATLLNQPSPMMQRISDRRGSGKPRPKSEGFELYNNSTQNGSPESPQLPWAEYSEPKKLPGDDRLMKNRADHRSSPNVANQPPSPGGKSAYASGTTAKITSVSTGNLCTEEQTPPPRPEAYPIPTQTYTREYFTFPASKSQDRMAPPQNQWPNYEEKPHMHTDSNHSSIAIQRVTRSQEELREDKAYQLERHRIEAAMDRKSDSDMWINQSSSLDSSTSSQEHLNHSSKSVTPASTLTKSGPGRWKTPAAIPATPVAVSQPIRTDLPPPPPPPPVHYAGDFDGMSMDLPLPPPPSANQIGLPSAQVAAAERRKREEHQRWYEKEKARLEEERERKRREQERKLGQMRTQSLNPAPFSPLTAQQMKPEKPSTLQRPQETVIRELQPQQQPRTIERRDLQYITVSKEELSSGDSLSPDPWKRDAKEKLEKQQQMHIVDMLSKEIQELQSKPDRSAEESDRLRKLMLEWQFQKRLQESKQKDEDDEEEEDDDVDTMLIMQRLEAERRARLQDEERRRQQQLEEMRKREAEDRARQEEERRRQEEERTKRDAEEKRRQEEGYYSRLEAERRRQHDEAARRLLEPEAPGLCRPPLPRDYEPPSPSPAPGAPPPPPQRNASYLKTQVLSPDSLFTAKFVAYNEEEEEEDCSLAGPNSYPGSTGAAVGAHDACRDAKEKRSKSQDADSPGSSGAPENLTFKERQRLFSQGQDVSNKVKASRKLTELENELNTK
UniProt Q6NS38: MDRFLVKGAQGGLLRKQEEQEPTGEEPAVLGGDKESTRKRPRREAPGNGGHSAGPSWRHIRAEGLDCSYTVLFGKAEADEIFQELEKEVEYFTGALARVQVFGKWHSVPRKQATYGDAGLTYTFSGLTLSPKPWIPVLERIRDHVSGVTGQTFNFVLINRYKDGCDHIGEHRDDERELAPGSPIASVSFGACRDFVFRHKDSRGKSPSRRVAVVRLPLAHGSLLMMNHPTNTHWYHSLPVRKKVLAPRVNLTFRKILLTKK
UniProt O43865, whole entry, looked up: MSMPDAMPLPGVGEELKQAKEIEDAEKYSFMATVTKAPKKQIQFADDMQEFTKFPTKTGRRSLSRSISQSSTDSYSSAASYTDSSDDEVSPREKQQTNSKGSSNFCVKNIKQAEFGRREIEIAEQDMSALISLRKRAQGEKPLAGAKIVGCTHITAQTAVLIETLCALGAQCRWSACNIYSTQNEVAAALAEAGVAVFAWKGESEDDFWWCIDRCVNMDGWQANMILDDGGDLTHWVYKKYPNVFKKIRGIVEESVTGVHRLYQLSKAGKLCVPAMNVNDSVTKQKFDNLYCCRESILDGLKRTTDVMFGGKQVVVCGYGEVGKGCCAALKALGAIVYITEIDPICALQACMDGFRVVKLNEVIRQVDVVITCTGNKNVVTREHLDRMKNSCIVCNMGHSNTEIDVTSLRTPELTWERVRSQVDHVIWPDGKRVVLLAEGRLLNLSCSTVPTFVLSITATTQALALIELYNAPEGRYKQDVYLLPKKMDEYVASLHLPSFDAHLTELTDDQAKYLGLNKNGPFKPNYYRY
UniProt Q9BRR6: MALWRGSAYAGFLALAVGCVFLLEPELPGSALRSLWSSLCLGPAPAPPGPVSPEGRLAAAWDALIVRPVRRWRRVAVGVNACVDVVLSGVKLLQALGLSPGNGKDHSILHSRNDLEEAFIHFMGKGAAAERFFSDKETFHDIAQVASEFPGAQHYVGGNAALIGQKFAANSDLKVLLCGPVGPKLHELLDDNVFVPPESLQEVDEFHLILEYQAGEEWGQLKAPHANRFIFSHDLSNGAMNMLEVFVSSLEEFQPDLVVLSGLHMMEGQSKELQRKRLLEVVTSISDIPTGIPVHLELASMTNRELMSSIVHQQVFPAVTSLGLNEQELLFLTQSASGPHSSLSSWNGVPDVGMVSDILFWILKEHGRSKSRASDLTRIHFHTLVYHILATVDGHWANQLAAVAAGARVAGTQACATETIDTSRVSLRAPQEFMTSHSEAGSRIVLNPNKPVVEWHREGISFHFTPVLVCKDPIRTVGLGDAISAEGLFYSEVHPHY
UniProt P00568: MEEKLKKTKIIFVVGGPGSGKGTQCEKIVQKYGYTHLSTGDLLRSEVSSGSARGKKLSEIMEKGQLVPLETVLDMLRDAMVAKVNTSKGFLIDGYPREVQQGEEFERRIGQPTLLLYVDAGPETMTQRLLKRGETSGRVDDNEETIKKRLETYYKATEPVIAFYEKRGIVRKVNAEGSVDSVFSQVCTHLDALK

Tests used:
Test in all cases: log2 fold change, soluble protein after heating vs DMSO (PISA); higher = thermal stabilisation; K562 cells, 10 uM, 30 min; active = over 0.2 and 3.5 SD of the protein, either way, in both replicates (recomputed)
[1] = compound: C1=CC=C(C=C1)[C@H](COC2=CC3=C(C=C2)NC(=O)N3)NC(=O)C4=CC=CN(C4=O)CC5=CC(=C(C=C5)F)F
How it was run: (§1)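 K562 cells at 2×10^6 cells/mL were exposed to 10 μM compound for 30 min, then aliquots were heated for 3 min across 48°C-58°C, pooled, and extracted in PBS containing 0.5% NP-40 at 4°C. The supernatant after 21,000xg for 90 min was taken as soluble protein and measured by TMTpro 16plex LC-MS/MS with channel sums equalised. Thermal stability is reported relative to control samples, with values from duplicates. Fold changes are given on a log2 scale.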

[2] = compound: CC1=C(SC2=C1C(=N[C@H](C3=NN=C(N32)C)CC(=O)N)C4=CC=C(C=C4)Cl)C
How it was run: as §1

[3] = compound: CC1=C2C(=CC=C1)N=C(N(C2=O)C3=CC=CC=C3C)CN4C=NC5=C(N=CN=C54)N
How it was run: as §1

[4] = compound: Cc1sc2c(c1C)C(c1ccc(Cl)cc1)=N[C@@H](CC(=O)OC(C)(C)C)c1nnc(C)n1-2
How it was run: as §1

[5] = compound: c1ccc([C@@H]2C[C@H]2NC2CCNCC2)cc1
How it was run: as §1

Measured: log2 fold change

AMN1 (UniProt Q8IY45)
inactive: [1] 0.055 | [2] -0.023 | [3] 0.287 | [4] -0.007 | [5] -0.082

ALG5 (UniProt Q9Y673)
inactive: [1] -0.037 | [2] 0.1 | [3] 0.082 | [4] -0.06 | [5] -0.056

AIFM2 (UniProt Q9BRQ8)
inactive: [1] 0.036 | [2] 0.047 | [3] 0.026 | [4] 0.045 | [5] 0

AMPD2 (UniProt Q01433)
inactive: [1] 0.002 | [2] 0.016 | [3] 0.037 | [4] 0.006 | [5] 0.011

ALDH5A1 isoform 2 (UniProt P51649)
inactive: [1] 0.025 | [2] 0.009 | [3] 0.003 | [4] -0.019 | [5] -0.009

ALDH9A1 (UniProt P49189)
inactive: [1] 0.059 | [2] -0.193 | [3] 0.03 | [4] 0.098 | [5] 0.156

AGL (UniProt P35573)
inactive: [1] -0.024 | [2] -0.051 | [3] -0.049 | [4] 0.067 | [5] 0.016

ALG10B (UniProt Q5I7T1)
inactive: [1] -0.115 | [2] 0.085 | [3] -0.048 | [4] -0.199 | [5] 0.017

ADSS2 (UniProt P30520)
inactive: [1] -0.003 | [2] 0.039 | [3] 0.041 | [4] -0.016 | [5] 0.012

ALDH1A2 (UniProt O94788)
inactive: [1] 0.01 | [2] 0.034 | [3] 0.014 | [4] -0.042 | [5] 0

AFDN isoform 5 (UniProt P55196)
inactive: [1] -0.04 | [2] 0.055 | [3] 0.069 | [4] -0.018 | [5] -0.023

AKAP1 (UniProt Q92667)
inactive: [1] 0.022 | [2] -0.005 | [3] 0.05 | [4] 0.021 | [5] 0.003

AGK (UniProt Q53H12)
inactive: [1] -0.019 | [2] -0.004 | [3] -0.002 | [4] -0.041 | [5] -0.002

ALKBH2 (UniProt Q6NS38)
inactive: [1] 0.02 | [2] -0.091 | [3] -0.022 | [4] 0.063 | [5] 0.082

AGO1 (UniProt Q9UL18)
inactive: [1] -0.05 | [2] -0.066 | [3] -0.114 | [4] -0.016 | [5] 0.05

AKT1S1 isoform 3 (UniProt Q96B36)
inactive: [1] 0.028 | [2] 0.033 | [3] 0.072 | [4] -0.068 | [5] 0.016

AHCYL1 (UniProt O43865)
inactive: [1] 0.057 | [2] -0.004 | [3] 0.014 | [4] -0.03 | [5] -0.037

Reprinted at random: 2 records from the list, in no set order.
AGO1 (UniProt Q9UL18)
inactive: [1] -0.05 | [2] -0.066 | [3] -0.114 | [4] -0.016 | [5] 0.05

AHCYL1 (UniProt O43865)
inactive: [1] 0.057 | [2] -0.004 | [3] 0.014 | [4] -0.03 | [5] -0.037

(cont.)

AKR1B1 (UniProt P15121)
inactive: [1] -0.016 | [2] 0.087 | [3] 0.006 | [4] 0 | [5] 0.005

AHCY (UniProt P23526)
inactive: [1] 0.007 | [2] 0.019 | [3] 0.019 | [4] -0.01 | [5] -0.011

ADPGK (UniProt Q9BRR6)
inactive: [1] -0.036 | [2] 0.039 | [3] 0.079 | [4] -0.008 | [5] 0.003

AFG3L2 (UniProt Q9Y4W6)
inactive: [1] -0.024 | [2] 0.043 | [3] 0.004 | [4] -0.022 | [5] 0.012

ALDOC (UniProt P09972)
inactive: [1] 0.041 | [2] 0.033 | [3] -0.008 | [4] -0.035 | [5] 0.005

ANAPC1 (UniProt Q9H1A4)
inactive: [1] -0.007 | [2] -0.023 | [3] 0.021 | [4] 0.025 | [5] -0.011

AK1 (UniProt P00568)
inactive: [1] -0.007 | [2] 0.099 | [3] 0.093 | [4] -0.012 | [5] -0.05
